PubChem BioAssay AID504808 – Drosophila RNAi Screening Center, 2011
The screen tested about 21,000 reagents; this is a random part of those that have a named target and a result. In the full data, 18 (0.084%) were called active. 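Raw counts without plate normalisation, one of two replicates; the ratio scores behind the calls were not deposited.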 Entries without a mark were called inactive. No sequences are given here. Not given: the amount of reagent, the time to read-out.

- Aim: 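Genes whose loss lifts activity of an E2F-responsive reporter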 (primary screen)
- Cells: Drosophila S2 cells
- Reagent: long dsRNA against Drosophila genes
- Read-out: 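Dual luciferase plate measurements; E2F-specific signal taken as firefly over Renilla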
- Scale: E2F firefly: higher = more E2F reporter activity; Renilla normaliser: higher = more normaliser reporter signal
- Active means: 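a knock-down counted as active when the firefly/Renilla E2F signal rose above 50%, a threshold chosen arbitrarily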

predicted target | DRSC id | E2F firefly, rep 1 | Renilla normaliser, rep 1
Fis1 | DRSC07772 | 93363 | 4256
Vsx1 | DRSC18349 | 1.12e5 | 4358
Vsx1 | DRSC18350 | 60402 | 3609
CG34426 | DRSC09977 | 1.02e5 | 4377
Unc-76 | DRSC18193 | 1.28e5 | 6544
Unc-76 | DRSC18560 | 1.16e5 | 6446
asl | DRSC12319 | 62689 | 2999
CG7646 | DRSC11232 | 1.30e5 | 5842
mthl13 | DRSC05238 | 1.29e5 | 5692
Atg6 | DRSC15798 | 72595 | 3201
CG43740 | DRSC17994 | 69675 | 5614
CG7848 | DRSC07050 | 1.39e5 | 5032
TBC1d7 | DRSC15985 | 97361 | 5317
sofe | DRSC19751 | 7855 | 736
tpr | DRSC04468 | 77291 | 3134
Fpps | DRSC07429 | 3343 | 189
CG7248 | DRSC10788 | 1.18e5 | 7246
Rpt4R | DRSC10791 | 1.20e5 | 7137
Cpr35B | DRSC01949 | 1.01e5 | 4404
CG13193 | DRSC06318 | 1.00e5 | 3812
Teh3 | DRSC08537 | 1.03e5 | 3925
Ctps | DRSC09342 | 1.15e5 | 4275
Ctps | DRSC10728 | 69707 | 3213
Ctps | DRSC10729 | 1.51e5 | 7666
Prps | DRSC08994 | 1.63e5 | 4422
Prps | DRSC10707 | 1.02e5 | 4682
Prps | DRSC10708 | 1.13e5 | 5839
CG14431 | DRSC17925 | 91121 | 5428
Rca1 | DRSC03407 | 51040 | 179
CG31882 | DRSC01084 | 1.48e5 | 6416
Ctr1A | DRSC18336 | 1.00e5 | 5311
CG13531 | DRSC04173 | 90754 | 3875
RpL8 | DRSC08532 | 65383 | 4443
RpL8 | DRSC08695 | 61110 | 4449
CG18538 | DRSC06765 | 1.40e5 | 5364
Rpn8 | DRSC04624 | 73056 | 5422
CG13723 | DRSC10052 | 1.59e5 | 6892
CG8399 | DRSC07163 | 68845 | 3019
Dp | DRSC07402 | 1213 | 199
CG32548 | DRSC19627 | 1.72e5 | 7511
CG32548 | DRSC19982 | 1.49e5 | 5273
CG32669 | DRSC18864 | 82044 | 2614
CG4586 | DRSC18373 | 8080 | 764
Or98a | DRSC16774 | 1.29e5 | 5688
Bcat | DRSC19756 | 1.40e5 | 7397
Spp | DRSC00328 | 93216 | 4023
CG15580 | DRSC12266 | 1.20e5 | 6713
CG17107 | DRSC02575 | 1.52e5 | 5277
Sgs8 | DRSC11282 | 1.26e5 | 7363

Sorted by “E2F firefly, rep 1” (descending): 17 of the entries above.
predicted target | DRSC id | E2F firefly, rep 1 | Renilla normaliser, rep 1
Prps | DRSC08994 | 1.63e5 | 4422
Ctps | DRSC10729 | 1.51e5 | 7666
CG31882 | DRSC01084 | 1.48e5 | 6416
CG18538 | DRSC06765 | 1.40e5 | 5364
Ctps | DRSC09342 | 1.15e5 | 4275
Prps | DRSC10708 | 1.13e5 | 5839
Teh3 | DRSC08537 | 1.03e5 | 3925
Prps | DRSC10707 | 1.02e5 | 4682
Cpr35B | DRSC01949 | 1.01e5 | 4404
CG13193 | DRSC06318 | 1.00e5 | 3812
Ctr1A | DRSC18336 | 1.00e5 | 5311
CG14431 | DRSC17925 | 91121 | 5428
CG13531 | DRSC04173 | 90754 | 3875
Ctps | DRSC10728 | 69707 | 3213
RpL8 | DRSC08532 | 65383 | 4443
RpL8 | DRSC08695 | 61110 | 4449
Rca1 | DRSC03407 | 51040 | 179

The listing continues.
predicted target | DRSC id | E2F firefly, rep 1 | Renilla normaliser, rep 1
CG31463 | DRSC14346 | 1.24e5 | 5780
mbf1 | DRSC11365 | 73868 | 3016
Daxx | DRSC03255 | 88204 | 3430
CG13326 | DRSC06363 | 107 | 41
CG18641 | DRSC00527 | 1.54e5 | 5904
lncRNA:CR42862 | DRSC08348 | 69684 | 3578
mora | DRSC16594 | 1.22e5 | 6143
NimA | DRSC01353 | 1.35e5 | 5302
CG15548 | DRSC15086 | 1.43e5 | 7075
CG1824 | DRSC19796 | 1.38e5 | 6008
Cyp12c1 | DRSC11125 | 84448 | 3725
CG4461 | DRSC10423 | 1.16e5 | 5960
CG34304 (retired record) | DRSC12810 | 58768 | 4639
CHES-1-like | DRSC18447 | 48998 | 3606
CG17982 | DRSC18143 | 1.33e5 | 7168
Antp | DRSC12490 | 61368 | 3443
ppk3 | DRSC04275 | 1.05e5 | 4153
Pli | DRSC16792 | 77498 | 3183
scw | DRSC01711 | 1.36e5 | 5936
scw | DRSC21252 | 1.35e5 | 6607
CG4839 | DRSC02783 | 75692 | 3466
CG4839 | DRSC02784 | 1.52e5 | 4874
FoxK | DRSC09859 | 61157 | 3583
CG1463 | DRSC19603 | 7763 | 732
Pka-C2 | DRSC16790 | 95396 | 6290
zda | DRSC06936 | 64492 | 2956
SP1029 | DRSC16848 | 1.36e5 | 6830
FarO | DRSC18475 | 1.26e5 | 6126
CG16926 | DRSC06637 | 70911 | 3194
CG11854 | DRSC14409 | 1.08e5 | 5509
Polr3C | DRSC14490 | 71137 | 3887
CG16762 | DRSC08493 | 1.06e5 | 4323
CG44837 | DRSC10133 | 82518 | 5146
CG44837 | DRSC10558 | 1.32e5 | 7375
RnrS | DRSC07533 | 1635 | 172
Hs2st | DRSC03348 | 76183 | 3032
CG1946 | DRSC06804 | 1.55e5 | 5065
GNBP-like3 | DRSC06385 | 1.43e5 | 4425
Shrm | DRSC06437 | 98609 | 4932
Shrm | DRSC06438 | 97026 | 3983
Shrm | DRSC07221 | 3057 | 211
Patronin | DRSC06756 | 1.53e5 | 5175
Patronin | DRSC06757 | 1.46e5 | 5283
Patronin | DRSC06994 | 1.33e5 | 5042
Daao1 | DRSC06131 | 1.53e5 | 5364
gdrd | DRSC10020 | 1.62e5 | 9481
Cyp313b1 | DRSC16629 | 1.30e5 | 6767
Rok | DRSC20277 | 1.93e5 | 6279
CG1271 | DRSC08290 | 74646 | 3566
CG7639 | DRSC07026 | 1.02e5 | 4345
ssp3 | DRSC02669 | 1.06e5 | 4975
ssp3 | DRSC02670 | 1.02e5 | 3989
CG9616 | DRSC16518 | 1.07e5 | 5621
Sesn | DRSC04101 | 76871 | 3615
Sesn | DRSC04102 | 1.12e5 | 4731
Sesn | DRSC04103 | 89934 | 3565
RpL7A | DRSC18709 | 49662 | 4838
glec | DRSC16958 | 1.57e5 | 6752
